Reference: article PMC7069097
Results are given in words; binding and its absence hold for the method and conditions named. Binding seen in cells or lysates may run through a third protein. Some results given as binding are weak or reduced against the parent protein; the word gives no strength. Sequences can lack the tags named with a protein.

Chains of the proteins cited; added tags and fusions are not shown.
UniProt Q14145: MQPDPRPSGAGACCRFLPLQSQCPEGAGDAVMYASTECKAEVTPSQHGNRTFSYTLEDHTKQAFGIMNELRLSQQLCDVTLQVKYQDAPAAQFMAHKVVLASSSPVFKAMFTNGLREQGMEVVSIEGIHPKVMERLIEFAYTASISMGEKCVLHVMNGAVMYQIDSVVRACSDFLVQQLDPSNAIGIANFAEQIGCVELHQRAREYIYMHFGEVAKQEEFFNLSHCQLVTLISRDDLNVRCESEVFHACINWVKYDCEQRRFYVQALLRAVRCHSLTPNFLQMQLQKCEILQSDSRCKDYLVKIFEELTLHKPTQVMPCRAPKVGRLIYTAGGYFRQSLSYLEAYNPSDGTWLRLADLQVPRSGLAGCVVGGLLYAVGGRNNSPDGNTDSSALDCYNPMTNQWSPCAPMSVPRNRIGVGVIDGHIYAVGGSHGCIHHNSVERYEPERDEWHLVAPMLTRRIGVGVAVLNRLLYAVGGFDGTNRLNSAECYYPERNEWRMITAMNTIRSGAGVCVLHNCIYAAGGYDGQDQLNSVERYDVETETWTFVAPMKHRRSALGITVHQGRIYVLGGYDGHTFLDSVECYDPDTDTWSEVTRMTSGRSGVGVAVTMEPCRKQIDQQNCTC

Biological target: T1, PAQR4-Flag (Progestin and AdipoQ Receptor 4 with a 3×Flag at the C-terminus) (human) (UniProt Q8N4S7)
T1 sequence: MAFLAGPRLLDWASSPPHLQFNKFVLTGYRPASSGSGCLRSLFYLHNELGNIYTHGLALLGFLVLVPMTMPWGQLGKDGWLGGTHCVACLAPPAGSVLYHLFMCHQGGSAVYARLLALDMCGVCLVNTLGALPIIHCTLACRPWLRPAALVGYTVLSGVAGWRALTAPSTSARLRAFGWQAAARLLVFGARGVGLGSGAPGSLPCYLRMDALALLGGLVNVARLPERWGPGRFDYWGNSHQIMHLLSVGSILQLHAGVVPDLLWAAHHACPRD
Assay: co-IP; HEK-293T cells transiently transfected with the indicated constructs; lysates immunoprecipitated with Flag/Myc/HA antibodies, western blot

Row | Substance | binding
1 | HA-Keap1 (Kelch-like ECH-associated protein 1, N-terminal 3×HA) (from UniProt Q14145 1-624) | binds
2 | Myc-Nrf2 (nuclear factor erythroid 2-related factor 2, N-terminal 6×Myc) (from UniProt Q16236-1 1-605) | binds
